Data on 1 sequence can be found in doi:10.1101/2021.01.01.425030.

Protein sequences, listed by entry. Tags and fused reporters are not part of them.
UniProt Q15717, whole entry: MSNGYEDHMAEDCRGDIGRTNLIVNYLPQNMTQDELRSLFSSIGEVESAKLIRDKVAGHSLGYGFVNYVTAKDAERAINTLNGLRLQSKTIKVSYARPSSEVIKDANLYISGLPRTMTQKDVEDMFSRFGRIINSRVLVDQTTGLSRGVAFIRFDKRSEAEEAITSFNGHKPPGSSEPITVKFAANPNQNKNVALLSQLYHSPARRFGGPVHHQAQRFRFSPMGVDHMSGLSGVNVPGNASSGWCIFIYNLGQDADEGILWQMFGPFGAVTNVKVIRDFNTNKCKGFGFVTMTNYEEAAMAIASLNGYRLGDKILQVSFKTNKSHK

The data set addresses mCherry-HuR (UniProt Q15717). Put plainly: RP-CONA on-bead pull-down, confocal imaging. The settings on record: HuR KO HEK293T lysate; protein in a lysate after overexpression.

The exact form of at least one protein or probe is not confirmed. At least one result comes from cells or an extract, where the contact may be indirect.

Regarding “UGUUGUUUUUAGAUAACUAAAUCGACAACAAA [FITC-pri-miR-7-CTL-biotin]”, the binding result is given as “binds”.
